From ChEMBL document CHEMBL4602644, “Synthesis of PJOV56, a new quinoxalinyl-hydrazone derivative able to induce autophagy and apoptosis in colorectal cancer cells, and related compounds” (Bioorg Med Chem Lett, 2020)

How the values were obtained:
HepG2 = test: Cytotoxicity against human HepG2 cells assessed as reduction in cell viability measured after 72 hrs by MTT assay; format: functional, cell-based; settings: HepG2, 72 h
K562 = test: Cytotoxicity against human K562 cells assessed as reduction in cell viability measured after 72 hrs by MTT assay; format: functional, cell-based; settings: K562, 72 h

Which IC50 (HepG2) does the source give for COc1cccc2c1C(=O)c1c(O)c3c(c(O)c1C2=O)C[C@@](O)(C(=O)CO)C[C@@H]3O[C@H]1C[C@H](N)[C@H](O)[C@H](C)O1 [DOXORUBICIN] here?
The IC50 was 210 nM.

What about the IC50 (K562) of the same compound?
Its IC50 is 460 nM.
